Experimental data: patent US8890089B2, “Faecal markers” (Aberystwyth University, priority 2009, dated 2014)

experiment: Fluorescence of faeces from sheep fed marker supplement; assay type: in vivo; conditions: 2 g/d marker for one week on concentrate and barley straw
Description: A number of chlorophyll breakdown products was tested for use as markers of faecal contamination on a range of diets. Eight Cheviot sheep were fed either: i) fresh grass and clover, ii) grass silage, iii) hay or iv) concentrate and barley straw. Each diet was offered to two sheep for a period of two weeks before diet change over in a duplicate 4×4 Latin Square design. Samples of feed were collected during the whole feeding period and bulked whilst samples of faeces were taken at the end of the period. Samples were measured for chlorophyll and its derivatives using HPLC. Fluorescence emission spectra were measured directly on the faeces. The samples were placed into sample cuvettes, which exposed a flat circular surface with a diameter of 5 cm for the measurements. The fluorescence emission spectra were measured with excitation at 382 nm and 430 nm, using an optical bench system, suitable for solutions and solid samples. The excitation light was generated by a 300 W Xenon light source (Oriel 6258, Oriel Corporation, Stratford, Conn.) and passed through a 10 nm bandwidth interference filter (Oriel 59920) and (Oriel 59295). The light was directed onto the samples at an angle of about 45°. The spectra were collected by an imaging spectrograph (Acton SP-150, Acton Research Corporation, Acton, Mass.) connected to a sensitive charge coupled device (CCD-camera) (Roper Scientific NTE/CCD-1340/400-EMB, Roper Scientific, Trenton, N.J.). Cut-off filters at 400 nm (for the 382 nm excitation) (Melles Griot 03FCG049) and 475 nm (for the 430 nm excitation) (Melles Griot 03FCG068) were positioned in front of the spectrograph slit to suppress excitation light reflected from the samples. […] All the samples were measured twice and an average was used in the analysis. […] To ensure stable illumination, the emission intensity at 440 nm at excitation 382 nm was measured from a stable fluorescence standard of washable plastic (Ciba, Basel, Switzerland) before and after the measurements. Fluorescence images were collected with the same system, slightly modified. […]

| Substance | fluorescence in faeces |
| --- | --- |
| iron chlorophyllin [Fe] | produced fluorescence in faeces |
| magnesium chlorophyllin [Mg] | produced fluorescence in faeces |
| zinc chlorophyllin [Zn] | produced fluorescence in faeces |

Some entries repeat one wording, which the source may state once for all of them.
